PubChem BioAssay AID652272 – Drosophila RNAi Screening Center, 2013
Aim: 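Finding fly genes that regulate Hedgehog signal transduction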 (primary screen). Cells: Drosophila clone 8 (Cl8) cells. Reagent: long dsRNA against Drosophila genes. Measured: 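Firefly light from a Hedgehog-responsive ptc promoter reporter and Renilla reference light, both read on a plate reader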. Reading the numbers: firefly Hh reporter signal: higher = more ptc reporter light; Renilla reference signal: higher = more Renilla control light. Active means: 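Called a hit if the two-replicate mean z-score lies below -2 or above +3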. Meaning of the calls: active = hit: reporter lowered or raised; inactive = not a hit.
The deposit covers about 21,000 reagents; this is a random part of those that have a named target and a result. Of all reagents, 503 (2.4%) are marked active. 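Raw plate light values, not normalised; calls rest on replicate z-scores that were not deposited; hits include reporter decreases as well as increases.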 Entries without a mark were called inactive. Names joined by + are all predicted targets of the reagent. Not given: the amount of reagent, the time to read-out.

CG9631 [DRSC14137]: firefly Hh reporter signal, replicate 1 = 89084; firefly Hh reporter signal, replicate 2 = 93306; Renilla reference signal, replicate 1 = 3762; Renilla reference signal, replicate 2 = 3405
Sox100B [DRSC15090]: firefly Hh reporter signal, replicate 1 = 75702 (active); firefly Hh reporter signal, replicate 2 = 80758; Renilla reference signal, replicate 1 = 4071; Renilla reference signal, replicate 2 = 4370
Sox100B [DRSC16866]: firefly Hh reporter signal, replicate 1 = 1.00e5; firefly Hh reporter signal, replicate 2 = 1.48e5; Renilla reference signal, replicate 1 = 3924; Renilla reference signal, replicate 2 = 4427
Pi4KIIIalpha [DRSC18655]: firefly Hh reporter signal, replicate 1 = 60086; firefly Hh reporter signal, replicate 2 = 1.84e5; Renilla reference signal, replicate 1 = 1632; Renilla reference signal, replicate 2 = 6293
CSN7 [DRSC06807]: firefly Hh reporter signal, replicate 1 = 85893; firefly Hh reporter signal, replicate 2 = 61879; Renilla reference signal, replicate 1 = 3170; Renilla reference signal, replicate 2 = 2256
CSN7 [DRSC06808]: firefly Hh reporter signal, replicate 1 = 68475; firefly Hh reporter signal, replicate 2 = 59761; Renilla reference signal, replicate 1 = 1677; Renilla reference signal, replicate 2 = 4492
CG10663 [DRSC09770]: firefly Hh reporter signal, replicate 1 = 65299; firefly Hh reporter signal, replicate 2 = 33980; firefly Hh reporter signal, replicate 3 = 31744; Renilla reference signal, replicate 1 = 1338; Renilla reference signal, replicate 2 = 582
Phs [DRSC10827]: firefly Hh reporter signal, replicate 1 = 1.09e5; firefly Hh reporter signal, replicate 2 = 58611; Renilla reference signal, replicate 1 = 4440; Renilla reference signal, replicate 2 = 2041
CG17930 [DRSC15292]: firefly Hh reporter signal, replicate 1 = 83370; firefly Hh reporter signal, replicate 2 = 61863; Renilla reference signal, replicate 1 = 3603; Renilla reference signal, replicate 2 = 2777
mth [DRSC08725]: firefly Hh reporter signal, replicate 1 = 1.23e5; firefly Hh reporter signal, replicate 2 = 1.05e5; Renilla reference signal, replicate 1 = 5941; Renilla reference signal, replicate 2 = 4184
CG12360 (retired record) [DRSC14505]: firefly Hh reporter signal, replicate 1 = 1.25e5; firefly Hh reporter signal, replicate 2 = 93744; Renilla reference signal, replicate 1 = 4139; Renilla reference signal, replicate 2 = 2056
CG1927 [DRSC08146]: firefly Hh reporter signal, replicate 1 = 1.44e5; firefly Hh reporter signal, replicate 2 = 78800; Renilla reference signal, replicate 1 = 5641; Renilla reference signal, replicate 2 = 3224
CG13449 [DRSC09996]: firefly Hh reporter signal, replicate 1 = 1.30e5; Renilla reference signal, replicate 1 = 7617; Renilla reference signal, replicate 2 = 4134
dgt4 [DRSC18659]: firefly Hh reporter signal, replicate 1 = 51623; firefly Hh reporter signal, replicate 2 = 1.40e5; Renilla reference signal, replicate 1 = 1769; Renilla reference signal, replicate 2 = 5840
Tasp1 [DRSC10495]: firefly Hh reporter signal, replicate 1 = 62412; firefly Hh reporter signal, replicate 2 = 64403; Renilla reference signal, replicate 1 = 2544; Renilla reference signal, replicate 2 = 2386
SdhD [DRSC14215]: firefly Hh reporter signal, replicate 1 = 5.42e5; firefly Hh reporter signal, replicate 2 = 1.13e5; Renilla reference signal, replicate 1 = 29192; Renilla reference signal, replicate 2 = 3990
Tcs6 + PIG-P [DRSC13742]: firefly Hh reporter signal, replicate 1 = 43849; firefly Hh reporter signal, replicate 2 = 1.66e5; Renilla reference signal, replicate 1 = 11413; Renilla reference signal, replicate 2 = 4628
Tcs6 + PIG-P [DRSC14893]: firefly Hh reporter signal, replicate 1 = 5.65e5; firefly Hh reporter signal, replicate 2 = 1.27e5; Renilla reference signal, replicate 1 = 28448; Renilla reference signal, replicate 2 = 3458
CG11791 [DRSC14391]: firefly Hh reporter signal, replicate 1 = 1.36e5; firefly Hh reporter signal, replicate 2 = 77748; Renilla reference signal, replicate 1 = 5128; Renilla reference signal, replicate 2 = 1511
CG4572 [DRSC15603]: firefly Hh reporter signal, replicate 1 = 86793; firefly Hh reporter signal, replicate 2 = 68388; Renilla reference signal, replicate 1 = 3891; Renilla reference signal, replicate 2 = 2816
CG12241 [DRSC14481]: firefly Hh reporter signal, replicate 1 = 97690; firefly Hh reporter signal, replicate 2 = 53511; Renilla reference signal, replicate 1 = 4275; Renilla reference signal, replicate 2 = 2353
CG42346 [DRSC20622]: firefly Hh reporter signal, replicate 1 = 85430; firefly Hh reporter signal, replicate 2 = 2.13e5; Renilla reference signal, replicate 1 = 2963; Renilla reference signal, replicate 2 = 9878
CG42346 [DRSC20644]: firefly Hh reporter signal, replicate 1 = 77549; firefly Hh reporter signal, replicate 2 = 1.82e5; Renilla reference signal, replicate 1 = 2588; Renilla reference signal, replicate 2 = 7964
GstD1 [DRSC16683]: firefly Hh reporter signal, replicate 1 = 1.32e5; firefly Hh reporter signal, replicate 2 = 1.48e5; Renilla reference signal, replicate 1 = 4505; Renilla reference signal, replicate 2 = 3958
KFase [DRSC03258]: firefly Hh reporter signal, replicate 1 = 68736; firefly Hh reporter signal, replicate 2 = 65063; Renilla reference signal, replicate 1 = 1524; Renilla reference signal, replicate 2 = 5540
CG8768 [DRSC07259]: firefly Hh reporter signal, replicate 1 = 71072; firefly Hh reporter signal, replicate 2 = 51357; Renilla reference signal, replicate 1 = 3173; Renilla reference signal, replicate 2 = 2444
unc-45 [DRSC15449]: firefly Hh reporter signal, replicate 1 = 1.05e5; firefly Hh reporter signal, replicate 2 = 1.64e5; Renilla reference signal, replicate 1 = 3930; Renilla reference signal, replicate 2 = 4448
